Here are results for 18 compounds from the supplement of paper PMC4635364.

Counter-ions that a name gives are not always drawn. The list shows a part of the results. Single values are uncertain here, since repeats match poorly.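 ReNCell VM, a human fetal ventral-midbrain neural progenitor line, was differentiated without mitogens. Blinded raters scored images stained for doublecortin (early neurons) or tyrosine hydroxylase (dopaminergic neurons) against untreated wells (0 = no change). Scores were averaged across repeats and both raters, and compounds averaging 2 or more were selected as hits for retesting.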

The subject of test [1] is ReNCell VM. The experiment in a line: neuronal differentiation score (DCX+ cell fraction vs untreated, manual image score) (score (-3 to 3)); higher = more neuronal differentiation. The following applies: 2 uM, 2 weeks.
For test [2], the system named is ReNCell VM. The experiment in a line: dopaminergic neuron differentiation score (TH+ cell fraction vs untreated, manual image score) (score (0 to 3)); higher = more TH+ dopaminergic neuron differentiation. The note with it: 2 uM, 4 weeks, BDNF 10 ng/ml + GDNF 10 ng/ml.

`Clc1cccc2c1CN(C1=NCCN1)C2`: in the test on ReNCell VM [1] (library: Tocriscreen), the neuronal differentiation score is inactive: 0. For the same compound, the “dopaminergic neuron differentiation score” value in the test with ReNCell VM [2] (library: Tocriscreen) is inactive: 0.
Consider `COc1ccnc(C[S+]([O-])c2nc3cc(OC(F)F)ccc3[nH]2)c1OC` (stereo unspecified), for which the neuronal differentiation score with ReNCell VM [1] (library: Spectrum) is inactive: 0. Further, the “dopaminergic neuron differentiation score” value with ReNCell VM [2] (library: Spectrum) is inactive: 0.
As to `COC(=O)C(Cc1ccccc1)NC(=O)/C(=C1/OC(=O)C(c2ccccc2)=C1O)c1ccccc1` (stereo unspecified), the neuronal differentiation score in the test with ReNCell VM [1] (library: Spectrum) was inactive: 0. Moreover, the “dopaminergic neuron differentiation score” value in the test on ReNCell VM [2] (library: Spectrum) was inactive: 0.
On to `Cc1cc(C)c(N(Cc2ccccc2)S(=O)(=O)c2ccc(OCCNC(=O)c3cc4ccccc4o3)cc2)c(C(=O)NO)c1`, for which the neuronal differentiation score in the test on ReNCell VM [1] (library: Tocriscreen) was inactive: 0. Moreover, in the test on ReNCell VM [2] (library: Tocriscreen), the “dopaminergic neuron differentiation score” value is inactive: 0.
Turning to `Cc1cc(O)cc2c1C(=O)Oc1cc3c(c(O)c1O2)C(=O)OC3` [Variolaric acid], the neuronal differentiation score with ReNCell VM [1] (library: Phytochemical) is inactive: 0. For the same compound, the “dopaminergic neuron differentiation score” value in the test on ReNCell VM [2] (library: Phytochemical) was inactive: 0.
With `CC(=O)CCCCn1c(=O)c2c(ncn2C)n(C)c1=O`, in the test on ReNCell VM [1] (library: Spectrum), the neuronal differentiation score was inactive: 0. Moreover, in the test with ReNCell VM [2] (library: Spectrum), the “dopaminergic neuron differentiation score” value was inactive: 0.
For `O=C(O)c1nc2cc(Cl)c(Cl)cc2nc1O`, the neuronal differentiation score in the test with ReNCell VM [1] (library: Spectrum) was inactive: 0. For the same compound, the “dopaminergic neuron differentiation score” value in the test with ReNCell VM [2] (library: Spectrum) is inactive: 0.
For the compound `CC(C)(C)NC[C@H](O)COc1nsnc1N1CCOCC1` [S(-)-Timolol maleate], in the test with ReNCell VM [1] (library: LOPAC), the neuronal differentiation score is inactive: 0. In the test on ReNCell VM [2] (library: LOPAC), the “dopaminergic neuron differentiation score” value was inactive: 0.
Take `COc1cc(C(=O)N2CCOCC2)cc(OC)c1OC`: the neuronal differentiation score in the test with ReNCell VM [1] (library: Spectrum) was inactive: 0. The “dopaminergic neuron differentiation score” value in the test on ReNCell VM [2] (library: Spectrum) was inactive: 0.
Regarding `COC(=O)/C(=C1/OC(=O)C(c2ccccc2)=C1O)c1ccccc1` [vulpinic acid], in the test with ReNCell VM [1] (library: Natural), the neuronal differentiation score was inactive: 0. The “dopaminergic neuron differentiation score” value in the test with ReNCell VM [2] (library: Natural) was inactive: 0.
On to `Nc1nc(O)c2ncn(CCC(CO)CO)c2n1` [Penciclovir], for which, in the test with ReNCell VM [1] (library: Prestwick), the neuronal differentiation score was inactive: 0. The “dopaminergic neuron differentiation score” value with ReNCell VM [2] (library: Prestwick) was inactive: 0.
In the case of `O=C(O)Cc1nn(Cc2ccc(Br)cc2F)c(=O)c2ccccc12` [Statil], the neuronal differentiation score in the test on ReNCell VM [1] (library: Tocriscreen) was inactive: 0. Also, the “dopaminergic neuron differentiation score” value in the test on ReNCell VM [2] (library: Tocriscreen) is inactive: 0.
Regarding `O=C1CC[C@@H](C(=O)O)N1`, the neuronal differentiation score with ReNCell VM [1] (library: Spectrum) was inactive: 0. Moreover, in the test with ReNCell VM [2] (library: Spectrum), the “dopaminergic neuron differentiation score” value was inactive: 0.
For the compound `COc1ccc2[nH]c([S+]([O-])Cc3ncc(C)c(OC)c3C)nc2c1` (stereo unspecified), the neuronal differentiation score in the test with ReNCell VM [1] (library: Spectrum) is inactive: 0. Also, in the test on ReNCell VM [2] (library: Spectrum), the “dopaminergic neuron differentiation score” value is inactive: 0.
For `COc1cc2ccc(=O)oc2cc1O`, the neuronal differentiation score in the test on ReNCell VM [1] (library: Spectrum) is inactive: 0. Besides, in the test with ReNCell VM [2] (library: Spectrum), the “dopaminergic neuron differentiation score” value is inactive: 0.
Take `C=C(C)[C@@H]1CC=C(CO)CC1`: in the test on ReNCell VM [1] (library: Spectrum), the neuronal differentiation score is inactive: 0. Besides, the “dopaminergic neuron differentiation score” value with ReNCell VM [2] (library: Spectrum) is inactive: 0.
Consider `CC(C)[C@@H](C)/C=C/[C@@H](C)[C@H]1CC[C@H]2C3=CC=C4C[C@@H](O)CC[C@]4(C)[C@H]3CC[C@]12C`, for which, in the test on ReNCell VM [1] (library: Spectrum), the neuronal differentiation score was inactive: -1. The “dopaminergic neuron differentiation score” value with ReNCell VM [2] (library: Spectrum) is inactive: 1.
The matching figures for `C[C@@H]1[C@H](O)[C@@H](C)/C=C/C=C/C=C/C=C/C=C/C=C/C=C/[C@H](O[C@@H]2O[C@H](C)[C@@H](O)[C@H](N)[C@@H]2O)C[C@@H]2O[C@](O)(C[C@@H](O)C[C@@H](O)[C@H](O)CC[C@@H](O)C[C@@H](O)CC(=O)O[C@H]1C)C[C@H](O)[C@H]2C(=O)O`: inactive: 0 and inactive: 0.
